This passage reports T/C and survivor count results from PubChem BioAssay AID212 (DTP/NCI, 2004).

The list is a part of this screen's results and no random one: it is rich in T/C values a quarter to a half above the control, in often repeated tests (any T/C) and in doses without a T/C. Further doses and runs are listed elsewhere. T/C is the treated group as % of the vehicle group. Schedules are NCI's codes, taken here to give the interval after Q, in days (D) or hours (H), and the number of doses after X. Some doses were run more than once; the results are listed from low to high. Some T/C values are followed by the survivors on the day toxicity was checked, most often the fifth; without a count, all were alive then. Some entries give survivors of the animals treated and no T/C: the source holds a T/C of zero for them, seemingly a mark for toxic or unscored doses. Counts of survivors are from the toxicity check (mostly the fifth day) where no day follows; animals may have died later.

This test deals with BDF1 mice, colon carcinoma 38 sc, T/C %. Briefly: NCI In Vivo Anticancer Drug Screen. Data for tumor model Colon Carcinoma 38 (subcutaneous) in B6D2F1 (BDF1) mice. As to conditions: T/C endpoint: median tumor weight (est.), higher T/C = larger tumour; for T/C: evaluated on day 20. In short, it runs like this:
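Compound antitumor activity was assessed in mice carrying transplantable tumors. Survival or tumor size was recorded, and each value is the treated-group measurement divided by that of the vehicle-treated control group.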

The mark [1] stands for this setting: dose: 25.0 mg/kg/injection, schedule: Q07DX002 (ip), vehicle: saline with Tween-80.
Setting [2] is: dose: 200.0 mg/kg/injection, schedule: Q07DX002 (ip), vehicle: saline.
Setting [3] is: dose: 400.0 mg/kg/injection, schedule: Q07DX002 (ip), vehicle: Klucel (hydroxypropylcellulose) (HPC).
Where [4] appears, read: dose: 100.0 mg/kg/injection, schedule: Q07DX002 (ip), vehicle: suspension in saline.

`C(COCCOCC1CO1)OCCOCC1CO1` (stereo not given): the T/C under setting [1] was 142 % of control; the T/C (dose: 25.0 mg/kg/injection, schedule: Q07DX002 (ip), vehicle: saline) was 125 % of control; the T/C (dose: 50.0 mg/kg/injection, schedule: Q07DX002 (ip), vehicle: saline with Tween-80) is 126 % of control; the T/C (dose: 100.0 mg/kg/injection, schedule: Q07DX002 (ip), vehicle: saline with Tween-80) was 140 % of control; the T/C under setting [2] was 126 % of control.

On to `O=C(O)C1(NO)CCCCC1`, for which the T/C (dose: 25.0 mg/kg/injection, schedule: Q07DX002 (ip), vehicle: Klucel (hydroxypropylcellulose) (HPC)) was 125 % of control.

As for `Cn1cnc([N+](=O)[O-])c1S(=O)(=O)NCN1CCOCC1`, the survivor count reads like this: under setting [3], 1 of 10 on day 20; (dose: 800.0 mg/kg/injection, schedule: Q07DX002 (ip), vehicle: Klucel (hydroxypropylcellulose) (HPC)) 0 of 10 on day 20.

For `N=c1ccn2c(n1)OC1C(O)C(CO)OC12` (stereo not given), the T/C (dose: 50.0 mg/kg/injection, schedule: Q07DX002 (ip), vehicle: saline) is 129 % of control. Moreover, the survivor count reads like this: (dose: 1600.0 mg/kg/injection, schedule: Q07DX002 (ip), vehicle: saline) 5 of 10 on day 20; (dose: 3200.0 mg/kg/injection, schedule: Q07DX002 (ip), vehicle: saline) 0 of 10 on day 20.

As for `O=C(O)/C=C/C(=O)N1Cc2cc3ccccc3nc2C1`, the T/C is, setting by setting: under setting [1], 149 % of control; (dose: 400.0 mg/kg/injection, schedule: Q07DX002 (ip), vehicle: saline with Tween-80) 138 % of control [9 of 10 alive on day 20].

As for `O=C(O)CSc1nc(-c2ccccc2)c(-c2ccccc2)n1-c1ccccn1`, the T/C (dose: 12.5 mg/kg/injection, schedule: Q07DX002 (ip), vehicle: water) was 126 % of control. In addition, the survivor count under setting [3] is given as 0 of 10 on day 20 and the survivor count (dose: 400.0 mg/kg/injection, schedule: Q07DX002 (ip), vehicle: water) is recorded as 0 of 10 on day 20.

In the case of `NC(=S)N/N=C\c1ncccc1OCc1cccc(N)c1`, the survivor count (dose: 800.0 mg/kg/injection, schedule: Q07DX002 (ip), vehicle: distilled water + Tween-80) is listed as 3 of 10 on day 20.

For `CCC[CH2][Hg][Cl]`, the T/C runs as follows: (dose: 1.25 mg/kg/injection, schedule: Q07DX002 (ip), vehicle: Klucel (hydroxypropylcellulose) (HPC)) 134 % of control; (dose: 10.0 mg/kg/injection, schedule: Q07DX002 (ip), vehicle: Klucel (hydroxypropylcellulose) (HPC)) 125 % of control [9 of 10 alive on day 20].

With `C=C(C)[C@H]1Cc2c(ccc3c2O[C@@H]2COc4cc(OC)c(OC)cc4[C@@H]2C3=O)O1`, the T/C (dose: 4.0 mg/kg/injection, schedule: Q07DX003 (ip), vehicle: saline with Tween-80) was 141 % of control. Moreover, under “dose: 16.0 mg/kg/injection, schedule: Q07DX003 (ip), vehicle: saline with Tween-80”, the survivor count was 5 of 10.

On to `Nc1ccn(C2CC(O)C(CO)O2)c(=O)n1` (stereo not given), for which the T/C was 128 % of control [9 of 10 alive on day 20] (dose: 168.75 mg/kg/injection, schedule: Q07DX002 (ip), vehicle: water) and 129 % of control (dose: 675.0 mg/kg/injection, schedule: Q07DX002 (ip), vehicle: water).

`COC(C(=O)C(O)C(C)O)C1CC2C=C3C=C(OC4CC(OC5CC(O)C(OC)C(C)O5)C(OC(C)=O)C(C)O4)C(C)C(=O)C3=C(O)C2=C(O)C1OC1CC(OC2CC(OC3CC(C)(O)C(O)C(C)O3)C(O)C(C)O2)C(O)C(C)O1` (stereo not given): the T/C (dose: 0.5 mg/kg/injection, schedule: Q07DX002 (ip), vehicle: saline with Tween-80) is 131 % of control [9 of 10 alive on day 20].

Turning to `Nc1ncnc2c1ncn2C1OC(CO)C(O)C1O` (stereo not given), the T/C is, setting by setting: (dose: 37.5 mg/kg/injection, schedule: Q07DX002 (ip), vehicle: saline) 127 % of control; (dose: 100.0 mg/kg/injection, schedule: Q07DX003 (ip), vehicle: saline) 149 % of control; (dose: 200.0 mg/kg/injection, schedule: Q07DX003 (ip), vehicle: saline) 147 % of control; (dose: 400.0 mg/kg/injection, schedule: Q07DX003 (ip), vehicle: saline) 125 % of control [9 of 10 alive on day 20]; (dose: 600.0 mg/kg/injection, schedule: Q07DX003 (ip), vehicle: saline) 141 % of control; (dose: 1200.0 mg/kg/injection, schedule: Q07DX002 (ip), vehicle: saline) 136 % of control. Besides, under setting [2], the survivor count is listed as 0 of 5.

For the compound `CC[n+]1c(-c2ccccc2)c2cc(N)ccc2c2ccc(N)cc21`, the T/C is, setting by setting: (dose: 2.5 mg/kg/injection, schedule: Q07DX002 (ip), vehicle: saline) 125 % of control; (dose: 5.0 mg/kg/injection, schedule: Q07DX002 (ip), vehicle: saline) 128 and 139 % of control; (dose: 10.0 mg/kg/injection, schedule: Q07DX002 (ip), vehicle: saline) 132 [9 of 10 alive on day 20] and 136 % of control. For the same compound, the survivor count by setting is: (dose: 40.0 mg/kg/injection, schedule: Q07DX002 (ip), vehicle: saline) 4 of 10 on day 20 and 6 of 10 on day 20; (dose: 80.0 mg/kg/injection, schedule: Q07DX002 (ip), vehicle: saline) 0 of 10 on day 20.

`CCC1(O)CC2CN(CCc3c([nH]c4ccccc34)C(C(=O)OC)(c3cc4c(cc3OC)N(C)C3C(O)(C(N)=O)C(O)C5(CC)C=CCN6CCC43C65)C2)C1` (stereo not given) (tested in a mixture with another compound): the survivor count (dose: 8.0 mg/kg/injection, schedule: Q07DX002 (ip), vehicle: water) is listed as 0 of 10 on day 20.

For `CC12CCC3C(CCC4CC(OC(=O)Cc5ccc(N(CCCl)CCCl)cc5)CCC43C)C1CCC(=O)N2` (stereo not given), for the setting “dose: 48.0 mg/kg/injection, schedule: Q07DX002 (ip), vehicle: saline with Tween-80”, the survivor count was 2 of 10 on day 20 and 3 of 10 on day 20.

Take `CCN=C=NCCCN(C)C`: the survivor count was 1 of 10 on day 20 under setting [2] and 0 of 10 on day 20 (dose: 400.0 mg/kg/injection, schedule: Q07DX002 (ip), vehicle: saline).

With `NNC(=S)N/N=C/c1ccccn1`, under setting [4], the survivor count is 2 of 10 on day 20.

Regarding `O=C(O)CCCc1ccc(N(CCCl)CCCl)cc1`, the survivor count by setting is: (dose: 60.0 mg/kg/injection, schedule: Q07DX002 (ip), vehicle: Klucel (hydroxypropylcellulose) (HPC)) 0 of 10 on day 20 and 5 of 10 on day 20; (dose: 120.0 mg/kg/injection, schedule: Q07DX002 (ip), vehicle: Klucel (hydroxypropylcellulose) (HPC)) 0 of 10 on day 20.

On to `[I][Hg][CH2]C1COC([CH2][Hg][I])CO1` (stereo not given), for which the T/C reads like this: (dose: 12.5 mg/kg/injection, schedule: Q07DX002 (ip), vehicle: suspension in saline) 135 % of control; (dose: 25.0 mg/kg/injection, schedule: Q07DX002 (ip), vehicle: suspension in saline) 148 % of control; under setting [4], 148 % of control [9 of 10 alive on day 20]. Also, the survivor count (dose: 200.0 mg/kg/injection, schedule: Q07DX002 (ip), vehicle: suspension in saline) is 5 of 10 on day 20.

As to `COc1cc(C[C@H]2c3cc(OC)c(OC)cc3CCN2C)c(Oc2cc3c(cc2OC)-c2c(OC)c(OC)cc4c2[C@H](C3)N(C)CC4)cc1OC`, the T/C is, setting by setting: (dose: 200.0 mg/kg/injection, schedule: Q04DX003 (ip), vehicle: saline) 142 % of control; (dose: 400.0 mg/kg/injection, schedule: Q04DX003 (ip), vehicle: saline) 125 % of control. The survivor count (dose: 400.0 mg/kg/injection, schedule: Q01DX005 (ip), vehicle: saline) was 4 of 10.
